Results are given in words; binding and its absence hold for the method and conditions named. For some of these results: Binding calls can cover weak binding; strength is not graded here.
Legend:
Cw5_C*05:01 (human) = assay: LABScreen beads, 10 µg/ml antibody
Cw1_C*01:02 (human) = assay: LABScreen beads, 10 µg/ml antibody
Cw17_C*17:01 (human) = assay: LABScreen beads, 10 µg/ml antibody
Cw8_C*08:01 (human) = assay: LABScreen beads, 10 µg/ml antibody
Cw4_C*04:01 (human) = assay: LABScreen beads, 10 µg/ml antibody
Cw12_C*12:03 (human) = assay: LABScreen beads, 10 µg/ml antibody
Cw15_C*15:02 (human) = assay: LABScreen beads, 10 µg/ml antibody
Cw2_C*02:02 (human) = assay: LABScreen beads, 10 µg/ml antibody
Cw10_C*03:04 (human) = assay: LABScreen beads, 10 µg/ml antibody
Cw9_C*03:03 (human) = assay: LABScreen beads, 10 µg/ml antibody
[1] = molecular target: Cw7_C*07:02 (human), C*07:0; assay: LABScreen beads, 10 µg/ml antibody
[2] = molecular target: Cw6_C*06:02 (human), C*06:0; assay: LABScreen beads, 10 µg/ml antibody
Cw16_C*16:01 (human) = assay: LABScreen beads, 10 µg/ml antibody
Cw14_C*14:02 (human) = assay: LABScreen beads, 10 µg/ml antibody
Cw18_C*18:02 (human) = assay: LABScreen beads, 10 µg/ml antibody
Cw10_C*03:02 (human) = assay: LABScreen beads, 10 µg/ml antibody
B78,Bw6_B*78:01 (human) = assay: LABScreen beads
B49,Bw4_B*49:01 (human) = assay: LABScreen beads
B35,Bw6_B*35:01 (human) = assay: LABScreen beads
B41,Bw6_B*41:01 (human) = assay: LABScreen beads
[3] = molecular target: B7,Bw6_B*07:02 (human), B*07:0; assay: LABScreen beads
B67,Bw6_B*67:01 (human) = assay: LABScreen beads
B65,Bw6_B*14:02 (human) = assay: LABScreen beads
B13,Bw4_B*13:02 (human) = assay: LABScreen beads
B51,Bw4_B*51:01 (human) = assay: LABScreen beads
B71,Bw6_B*15:10 (human) = assay: LABScreen beads
B52,Bw4_B*52:01 (human) = assay: LABScreen beads
B76,Bw6_B*15:12 (human) = assay: LABScreen beads
B57,Bw4_B*57:01 (human) = assay: LABScreen beads
B72,Bw6_B*15:03 (human) = assay: LABScreen beads
B54,Bw6_B*54:01 (human) = assay: LABScreen beads
B48,Bw6_B*48:01 (human) = assay: LABScreen beads
B27,Bw6_B*27:08 (human) = assay: LABScreen beads
B61,Bw6_B*40:06 (human) = assay: LABScreen beads
B53,Bw4_B*53:01 (human) = assay: LABScreen beads
B62,Bw6_B*15:01 (human) = assay: LABScreen beads
B45,Bw6_B*45:01 (human) = assay: LABScreen beads
B38,Bw4_B*38:01 (human) = assay: LABScreen beads
B82,Bw6_B*82:01 (human) = assay: LABScreen beads
B8,Bw6_B*08:01 (human) = assay: LABScreen beads
B75,Bw6_B*15:11 (human) = assay: LABScreen beads
B51,Bw4_B*51:02 (human) = assay: LABScreen beads
B61,Bw6_B*40:02 (human) = assay: LABScreen beads
B44,Bw4_B*44:03 (human) = assay: LABScreen beads
B64,Bw6_B*14:01 (human) = assay: LABScreen beads
B63,Bw4_B*15:16 (human) = assay: LABScreen beads
B59,Bw4_B*59:01 (human) = assay: LABScreen beads
B75,Bw6_B*15:02 (human) = assay: LABScreen beads
B56,Bw6_B*56:01 (human) = assay: LABScreen beads
B44,Bw4_B*44:02 (human) = assay: LABScreen beads
B77,Bw4_B*15:13 (human) = assay: LABScreen beads
B39,Bw6_B*39:01 (human) = assay: LABScreen beads
B50,Bw6_B*50:01 (human) = assay: LABScreen beads
B55,Bw6_B*55:01 (human) = assay: LABScreen beads
B47,Bw4_B*47:01 (human) = assay: LABScreen beads
B57,Bw4_B*57:03 (human) = assay: LABScreen beads
B13,Bw4_B*13:01 (human) = assay: LABScreen beads
B18,Bw6_B*18:01 (human) = assay: LABScreen beads
[4] = molecular target: B27,Bw4_B*27:05 (human), B*27:0; assay: LABScreen beads
B58,Bw4_B*58:01 (human) = assay: LABScreen beads
B81,Bw6_B*81:01 (human) = assay: LABScreen beads
B37,Bw4_B*37:01 (human) = assay: LABScreen beads
B60,Bw6_B*40:01 (human) = assay: LABScreen beads
B42,Bw6_B*42:01 (human) = assay: LABScreen beads

Measured: binding

B1: CW6B175 (antibody, V domains shown)
VH: EVQLVESGGGLVQPGGSLRLSCAASGFTFTNYWMTWVRQAPGKGLEWVANIKQSGSEKYYVDSVKGRFTISRDNAKNSLYLQMNSLRAEDTAVYYCARTLYEWELEPFDYWGQGTLVTVSS
VL: SYVLTQPPSVSVAPGQTARITCGGNRIGSKSVHWYQQKPGQAPVLVVFDDSDRPSGIPERFSGSNSGITATLTISRVEAGDEADYYCQVWDSSNDHVVFGGGTKLTVL
binds: Cw5_C*05:01 (human) | Cw1_C*01:02 (human) | Cw17_C*17:01 (human) | Cw8_C*08:01 (human) | Cw4_C*04:01 (human) | Cw12_C*12:03 (human) | Cw15_C*15:02 (human) | Cw2_C*02:02 (human) | Cw10_C*03:04 (human) | Cw9_C*03:03 (human) | [1] | [2] | Cw16_C*16:01 (human) | Cw14_C*14:02 (human) | Cw18_C*18:02 (human) | Cw10_C*03:02 (human)
no binding (tested: 10 µg/ml): B78,Bw6_B*78:01 (human) | B49,Bw4_B*49:01 (human) | B35,Bw6_B*35:01 (human) | B41,Bw6_B*41:01 (human) | [3] | B67,Bw6_B*67:01 (human) | B65,Bw6_B*14:02 (human) | B13,Bw4_B*13:02 (human) | B51,Bw4_B*51:01 (human) | B71,Bw6_B*15:10 (human) | B52,Bw4_B*52:01 (human) | B76,Bw6_B*15:12 (human) | B57,Bw4_B*57:01 (human) | B72,Bw6_B*15:03 (human) | B54,Bw6_B*54:01 (human) | B48,Bw6_B*48:01 (human) | B27,Bw6_B*27:08 (human) | B61,Bw6_B*40:06 (human) | B53,Bw4_B*53:01 (human) | B62,Bw6_B*15:01 (human) | B45,Bw6_B*45:01 (human) | B38,Bw4_B*38:01 (human) | B82,Bw6_B*82:01 (human) | B8,Bw6_B*08:01 (human) | B75,Bw6_B*15:11 (human) | B51,Bw4_B*51:02 (human) | B61,Bw6_B*40:02 (human) | B44,Bw4_B*44:03 (human) | B64,Bw6_B*14:01 (human) | B63,Bw4_B*15:16 (human) | B59,Bw4_B*59:01 (human) | B75,Bw6_B*15:02 (human) | B56,Bw6_B*56:01 (human) | B44,Bw4_B*44:02 (human) | B77,Bw4_B*15:13 (human) | B39,Bw6_B*39:01 (human) | B50,Bw6_B*50:01 (human) | B55,Bw6_B*55:01 (human) | B47,Bw4_B*47:01 (human) | B57,Bw4_B*57:03 (human) | B13,Bw4_B*13:01 (human) | B18,Bw6_B*18:01 (human) | [4] | B58,Bw4_B*58:01 (human) | B81,Bw6_B*81:01 (human) | B37,Bw4_B*37:01 (human) | B60,Bw6_B*40:01 (human) | B42,Bw6_B*42:01 (human)

Source: patent publication US20200317791A1
